Substitutions are numbered along the chain they refer to. These are yes or no findings as the source states them, for the method shown. In cells and extracts the contact can be indirect. Some results given as binding are weak or reduced against the parent protein; the word gives no strength. For part of these data: Sequences can lack the tags named with a protein.

The chains behind the UniProt entries cited, without tags or fusion partners.
UniProt P23458: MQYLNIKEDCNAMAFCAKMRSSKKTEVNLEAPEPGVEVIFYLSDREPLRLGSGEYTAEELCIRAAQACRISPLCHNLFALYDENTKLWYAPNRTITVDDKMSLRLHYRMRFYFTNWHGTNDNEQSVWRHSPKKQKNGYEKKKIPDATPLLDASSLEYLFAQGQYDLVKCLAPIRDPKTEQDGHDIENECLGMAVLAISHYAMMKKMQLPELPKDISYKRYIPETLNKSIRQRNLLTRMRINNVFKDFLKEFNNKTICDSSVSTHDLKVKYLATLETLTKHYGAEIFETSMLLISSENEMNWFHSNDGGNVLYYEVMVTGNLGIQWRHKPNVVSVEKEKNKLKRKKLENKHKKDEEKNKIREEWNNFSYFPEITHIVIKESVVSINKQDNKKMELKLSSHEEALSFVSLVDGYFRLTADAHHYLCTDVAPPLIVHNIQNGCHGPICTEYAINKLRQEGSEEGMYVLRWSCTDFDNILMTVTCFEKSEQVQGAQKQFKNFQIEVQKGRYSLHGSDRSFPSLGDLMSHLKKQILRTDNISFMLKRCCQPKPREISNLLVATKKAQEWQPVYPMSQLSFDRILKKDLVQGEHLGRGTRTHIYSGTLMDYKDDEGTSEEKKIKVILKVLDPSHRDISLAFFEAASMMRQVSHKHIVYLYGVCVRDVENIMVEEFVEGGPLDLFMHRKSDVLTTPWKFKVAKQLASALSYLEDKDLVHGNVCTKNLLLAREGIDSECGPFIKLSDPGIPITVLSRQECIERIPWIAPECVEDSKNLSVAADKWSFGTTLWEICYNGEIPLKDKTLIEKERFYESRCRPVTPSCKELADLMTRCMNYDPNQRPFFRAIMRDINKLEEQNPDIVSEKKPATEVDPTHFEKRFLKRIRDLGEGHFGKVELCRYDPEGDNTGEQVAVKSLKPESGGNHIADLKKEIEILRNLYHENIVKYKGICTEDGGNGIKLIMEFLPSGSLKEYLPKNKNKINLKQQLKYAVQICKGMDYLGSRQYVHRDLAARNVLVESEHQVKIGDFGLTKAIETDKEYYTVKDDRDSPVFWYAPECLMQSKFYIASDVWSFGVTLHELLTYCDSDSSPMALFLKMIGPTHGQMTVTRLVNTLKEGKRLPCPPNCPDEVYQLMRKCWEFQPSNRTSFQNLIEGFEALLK
UniProt P52630: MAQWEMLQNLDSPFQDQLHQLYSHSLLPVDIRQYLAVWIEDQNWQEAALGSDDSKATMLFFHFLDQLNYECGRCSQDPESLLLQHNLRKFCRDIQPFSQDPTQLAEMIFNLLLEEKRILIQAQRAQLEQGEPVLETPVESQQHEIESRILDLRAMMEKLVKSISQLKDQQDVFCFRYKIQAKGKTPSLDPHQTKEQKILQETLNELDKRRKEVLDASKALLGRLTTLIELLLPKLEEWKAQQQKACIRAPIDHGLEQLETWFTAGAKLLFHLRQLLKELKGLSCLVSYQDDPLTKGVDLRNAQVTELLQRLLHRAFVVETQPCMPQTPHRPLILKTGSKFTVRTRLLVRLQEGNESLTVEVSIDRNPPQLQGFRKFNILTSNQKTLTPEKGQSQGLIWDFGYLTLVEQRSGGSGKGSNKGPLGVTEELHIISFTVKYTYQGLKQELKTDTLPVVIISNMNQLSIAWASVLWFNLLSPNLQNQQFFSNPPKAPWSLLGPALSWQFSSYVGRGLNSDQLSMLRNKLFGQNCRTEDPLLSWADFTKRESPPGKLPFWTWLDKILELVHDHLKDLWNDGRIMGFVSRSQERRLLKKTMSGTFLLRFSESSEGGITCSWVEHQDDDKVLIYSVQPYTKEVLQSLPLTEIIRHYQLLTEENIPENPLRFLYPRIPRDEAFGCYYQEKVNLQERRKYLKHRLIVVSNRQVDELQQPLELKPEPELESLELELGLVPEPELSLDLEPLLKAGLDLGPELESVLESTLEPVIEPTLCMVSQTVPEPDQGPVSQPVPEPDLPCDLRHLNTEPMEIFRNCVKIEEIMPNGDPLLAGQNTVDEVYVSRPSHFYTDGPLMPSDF
UniProt P42224: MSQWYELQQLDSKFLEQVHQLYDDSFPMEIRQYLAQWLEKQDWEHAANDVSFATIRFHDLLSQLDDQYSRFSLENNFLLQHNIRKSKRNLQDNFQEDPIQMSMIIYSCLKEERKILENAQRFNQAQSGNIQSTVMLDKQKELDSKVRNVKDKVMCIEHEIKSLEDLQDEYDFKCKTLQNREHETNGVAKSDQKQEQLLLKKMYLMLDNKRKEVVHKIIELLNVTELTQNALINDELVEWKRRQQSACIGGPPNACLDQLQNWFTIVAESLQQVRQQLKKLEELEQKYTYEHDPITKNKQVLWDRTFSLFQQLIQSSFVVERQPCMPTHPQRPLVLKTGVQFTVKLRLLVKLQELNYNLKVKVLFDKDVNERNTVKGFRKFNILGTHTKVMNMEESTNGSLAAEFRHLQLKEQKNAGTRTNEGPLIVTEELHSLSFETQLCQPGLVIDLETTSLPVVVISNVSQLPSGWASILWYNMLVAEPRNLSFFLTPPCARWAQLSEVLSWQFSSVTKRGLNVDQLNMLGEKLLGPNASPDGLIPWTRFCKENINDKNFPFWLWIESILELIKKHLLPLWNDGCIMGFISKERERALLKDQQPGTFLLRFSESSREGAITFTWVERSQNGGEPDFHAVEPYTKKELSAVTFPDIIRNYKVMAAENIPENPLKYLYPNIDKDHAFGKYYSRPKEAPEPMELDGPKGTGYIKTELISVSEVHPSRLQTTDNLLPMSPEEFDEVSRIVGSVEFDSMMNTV

What all share (assay): co-IP
Experiment [1] addresses T1, Flag-PJA2-rm (human) (UniProt O43164).
T1 sequence: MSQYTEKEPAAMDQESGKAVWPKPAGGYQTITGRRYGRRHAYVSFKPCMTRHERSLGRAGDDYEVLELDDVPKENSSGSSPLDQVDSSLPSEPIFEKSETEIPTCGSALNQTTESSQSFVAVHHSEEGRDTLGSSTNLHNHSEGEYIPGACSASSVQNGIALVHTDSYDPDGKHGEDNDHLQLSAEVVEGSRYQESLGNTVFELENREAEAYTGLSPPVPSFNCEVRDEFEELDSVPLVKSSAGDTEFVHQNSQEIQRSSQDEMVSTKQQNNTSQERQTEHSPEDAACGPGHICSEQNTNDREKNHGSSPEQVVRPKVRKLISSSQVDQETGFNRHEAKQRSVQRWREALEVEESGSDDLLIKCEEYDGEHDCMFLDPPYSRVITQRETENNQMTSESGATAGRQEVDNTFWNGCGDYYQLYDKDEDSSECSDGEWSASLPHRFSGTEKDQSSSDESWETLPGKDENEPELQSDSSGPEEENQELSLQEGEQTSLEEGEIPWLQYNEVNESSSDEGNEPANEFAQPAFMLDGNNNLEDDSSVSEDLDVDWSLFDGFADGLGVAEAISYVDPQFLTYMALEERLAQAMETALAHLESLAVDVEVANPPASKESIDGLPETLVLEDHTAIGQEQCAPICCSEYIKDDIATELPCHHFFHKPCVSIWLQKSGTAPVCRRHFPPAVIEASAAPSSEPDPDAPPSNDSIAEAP

The target of experiment [2] is T2, Flag-PJA2 (human) (UniProt O43164).
T2 sequence: T1 sequence with A634C, A671C

For experiment [3], the target named is V5-TYK2 (human) (UniProt P29597).
In experiment [4] the target is T3, V5-TYK2(1-588) (human) (UniProt P29597).
T3 sequence: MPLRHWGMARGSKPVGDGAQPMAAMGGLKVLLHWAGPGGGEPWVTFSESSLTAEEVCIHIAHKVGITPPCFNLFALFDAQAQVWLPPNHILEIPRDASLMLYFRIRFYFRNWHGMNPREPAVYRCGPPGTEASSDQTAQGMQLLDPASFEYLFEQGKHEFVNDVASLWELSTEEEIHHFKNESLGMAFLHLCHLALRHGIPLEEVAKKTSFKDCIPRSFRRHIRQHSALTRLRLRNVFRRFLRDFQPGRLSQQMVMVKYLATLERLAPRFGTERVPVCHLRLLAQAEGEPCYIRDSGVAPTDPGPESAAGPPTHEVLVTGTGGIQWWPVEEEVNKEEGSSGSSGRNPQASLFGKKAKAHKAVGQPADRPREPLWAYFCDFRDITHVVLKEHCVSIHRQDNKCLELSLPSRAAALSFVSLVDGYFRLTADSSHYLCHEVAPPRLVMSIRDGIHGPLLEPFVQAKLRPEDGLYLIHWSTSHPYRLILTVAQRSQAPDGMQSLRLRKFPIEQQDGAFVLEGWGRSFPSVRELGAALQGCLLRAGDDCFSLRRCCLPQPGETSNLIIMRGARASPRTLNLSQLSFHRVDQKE

For experiment [5], the target named is TurboID-V5-JAK1 (HEK293T) (human) (UniProt P23458).
Experiment [6] addresses TurboID-V5-STAT2 (HEK293T) (human) (UniProt P52630).
Experiment [7] concerns the target TurboID-V5-TYK2 (HEK293T) (human) (UniProt P29597).
Experiment [8] deals with TurboID-V5-STAT1 (HEK293T) (human) (UniProt P42224).
Experiment [9] addresses T4, TurboID-V5-IRF9 (HEK293T) (human) (UniProt Q00978).
T4 sequence: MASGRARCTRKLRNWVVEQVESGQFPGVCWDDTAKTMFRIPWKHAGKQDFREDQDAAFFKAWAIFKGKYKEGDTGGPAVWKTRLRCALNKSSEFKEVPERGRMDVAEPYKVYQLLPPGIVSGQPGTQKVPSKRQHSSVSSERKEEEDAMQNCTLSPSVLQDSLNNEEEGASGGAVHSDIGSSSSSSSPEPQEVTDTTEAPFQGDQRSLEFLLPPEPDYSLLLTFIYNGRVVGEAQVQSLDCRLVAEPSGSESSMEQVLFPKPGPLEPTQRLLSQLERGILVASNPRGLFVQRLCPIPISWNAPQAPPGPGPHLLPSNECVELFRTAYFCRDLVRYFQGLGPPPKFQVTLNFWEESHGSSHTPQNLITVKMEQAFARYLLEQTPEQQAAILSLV

Consider “TYK2 (endogenous, HEK293T) (from UniProt P29597 1-1187) (enzyme)”, for which the binding result in experiment [1] and in experiment [2] was “binds” each time.

B1: PJA2 (endogenous, HEK293T) (enzyme, UniProt O43164 1-708)
chain: T1 sequence with A634C, A671C
For B1, the binding result in [3] and in experiment [4] was “binds” each time.

B2: Flag-PJA2 (enzyme, UniProt O43164-1 1-708)
chain: T1 sequence with A634C, A671C
For the molecule B2, the binding result is reported as “binds” in experiment [5]; “no binding” in [6]; “binds” in experiment [7]; “no binding” in experiment [8]; “no binding” in [9].

The record behind these values is paper doi:10.1101/2023.10.04.560926.
